Laboratory results taken from article doi:10.1101/2021.08.18.456837.
Results are given in words; binding and its absence hold for the method and conditions named. For part of these data: In cells and extracts the contact can be indirect. Tags and fused reporters may be left off the sequences shown.

Protein sequences, listed by entry. Tags and fused reporters are not part of them.
UniProt Q9LYG9: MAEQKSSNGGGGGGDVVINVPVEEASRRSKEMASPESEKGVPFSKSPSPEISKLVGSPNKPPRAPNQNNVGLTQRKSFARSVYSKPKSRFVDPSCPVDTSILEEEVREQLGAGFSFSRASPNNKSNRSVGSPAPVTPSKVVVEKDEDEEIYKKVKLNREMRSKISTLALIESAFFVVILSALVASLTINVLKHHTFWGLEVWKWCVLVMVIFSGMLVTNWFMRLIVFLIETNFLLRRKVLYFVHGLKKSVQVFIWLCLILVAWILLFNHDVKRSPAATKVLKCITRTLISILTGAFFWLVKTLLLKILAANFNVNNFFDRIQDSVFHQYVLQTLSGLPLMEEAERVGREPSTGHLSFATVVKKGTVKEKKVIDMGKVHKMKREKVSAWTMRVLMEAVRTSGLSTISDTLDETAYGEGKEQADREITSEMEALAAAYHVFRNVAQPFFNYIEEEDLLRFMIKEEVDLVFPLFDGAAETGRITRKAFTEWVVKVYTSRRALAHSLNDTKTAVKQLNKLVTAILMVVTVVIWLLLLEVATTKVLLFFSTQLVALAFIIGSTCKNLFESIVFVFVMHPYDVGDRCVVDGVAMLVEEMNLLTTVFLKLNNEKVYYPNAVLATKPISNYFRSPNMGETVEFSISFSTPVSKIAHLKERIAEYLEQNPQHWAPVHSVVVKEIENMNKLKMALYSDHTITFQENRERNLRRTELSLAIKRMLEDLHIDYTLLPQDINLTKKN
UniProt P27323: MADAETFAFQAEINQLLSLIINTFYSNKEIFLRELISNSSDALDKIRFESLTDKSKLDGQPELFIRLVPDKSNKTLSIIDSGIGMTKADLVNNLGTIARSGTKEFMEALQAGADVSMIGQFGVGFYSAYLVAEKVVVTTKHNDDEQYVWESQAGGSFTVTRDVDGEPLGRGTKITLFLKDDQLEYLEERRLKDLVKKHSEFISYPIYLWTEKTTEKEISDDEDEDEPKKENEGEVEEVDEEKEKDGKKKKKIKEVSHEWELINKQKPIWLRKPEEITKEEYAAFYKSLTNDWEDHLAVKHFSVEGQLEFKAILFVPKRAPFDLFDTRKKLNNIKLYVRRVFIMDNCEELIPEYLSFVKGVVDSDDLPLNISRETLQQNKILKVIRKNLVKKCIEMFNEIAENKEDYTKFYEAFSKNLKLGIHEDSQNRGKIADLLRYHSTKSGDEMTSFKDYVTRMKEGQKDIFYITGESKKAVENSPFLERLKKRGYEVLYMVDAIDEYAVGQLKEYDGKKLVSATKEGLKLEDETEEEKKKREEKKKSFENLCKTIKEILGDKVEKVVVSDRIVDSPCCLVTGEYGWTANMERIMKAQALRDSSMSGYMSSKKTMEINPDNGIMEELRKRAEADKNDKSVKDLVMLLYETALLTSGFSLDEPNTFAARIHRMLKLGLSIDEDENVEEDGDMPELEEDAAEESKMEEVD

B1: REQUIRED for MLAI2 … (RAR1), split-ubiquitin (mbSUS) fusion (protein, UniProt Q9SE33 1-226)
chain: MEVGSATKKLQCQRIGCNAMFTDDDNPQGSCQFHASGPFFHDGMKEWSCCKQRSHDFSLFLEIPGCKTGKHTTEKPVLAKSVPKHPVAAPTSSPDANAATKDSCSRCRQGFFCSDHGSQPKEQIKQTLNTPGQAEEEKIEPLAPPVQKAVIDINQPQVCKNKGCGQTFKERDNHETACSHHPGPAVFHDRLRGWKCCDVHVKEFDEFMEIPPCTKGWHSSSPDPAV
B2: SUPPRESSOR of G2 ALLELE of SKP1 b (SGT1b), split-ubiquitin (mbSUS) fusion (protein, UniProt Q9SUT5 1-358)
chain: MAKELAEKAKEAFLDDDFDVAVDLYSKAIDLDPNCAAFFADRAQANIKIDNFTEAVVDANKAIELEPTLAKAYLRKGTACMKLEEYSTAKAALEKGASVAPNEPKFKKMIDECDLRIAEEEKDLVQPMPPSLPSSSTTPLATEADAPPVPIPAAPAKPMFRHEFYQKPEEAVVTIFAKKVPKENVTVEFGEQILSVVIDVAGEEAYHLQPRLFGKIIPEKCRFEVLSTKVEIRLAKAEIITWASLEYGKGQSVLPKPNVSSALSQRPVYPSSKPAKDWDKLEAEVKKQEKDEKLDGDAAMNKFFSDIYSSADEDMRRAMNKSFAESNGTVLSTNWKEVGTKKVESTPPDGMELKKWEY
B3: REQUIRED for MLAI2 … (RAR1), BiFC fusion (protein, UniProt Q9SE33 1-226)
chain: B1 chain
B4: SUPPRESSOR of G2 ALLELE of SKP1 b (SGT1b), BiFC fusion (protein, UniProt Q9SUT5 1-358)
chain: B2 chain

biological target: MscS-Like (MSL)10, split-ubiquitin (mbSUS) fusion (Arabidopsis thaliana) (UniProt Q9LYG9); assay: two-hybrid

binding, no binding:
HEAT SHOCK PROTEIN 90 kD HSP90.1, split-ubiquitin (mbSUS) fusion (from UniProt P27323 1-700)
B1
B2

biological target: MscS-Like (MSL)10, BiFC fusion (Arabidopsis thaliana) (UniProt Q9LYG9); assay: split reporter

binding, no binding:
HEAT SHOCK PROTEIN 90 kD HSP90.1, BiFC fusion (from UniProt P27323 1-700)
B3
B4
